Drawing on US20030162261A1, this text covers binding for 1 substance.

The chains behind the UniProt entries cited, without tags or fusion partners. Where a name states a change or a piece, a line headed by the entry shows the natural chain unless it says otherwise. Residues count along the entry.
UniProt Q9NPF7: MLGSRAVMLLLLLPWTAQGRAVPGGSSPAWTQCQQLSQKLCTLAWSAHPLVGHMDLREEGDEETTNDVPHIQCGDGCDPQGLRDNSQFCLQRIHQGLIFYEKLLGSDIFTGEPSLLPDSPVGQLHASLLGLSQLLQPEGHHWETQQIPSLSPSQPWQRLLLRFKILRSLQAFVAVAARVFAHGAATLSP
UniProt P29460, residues 23-328: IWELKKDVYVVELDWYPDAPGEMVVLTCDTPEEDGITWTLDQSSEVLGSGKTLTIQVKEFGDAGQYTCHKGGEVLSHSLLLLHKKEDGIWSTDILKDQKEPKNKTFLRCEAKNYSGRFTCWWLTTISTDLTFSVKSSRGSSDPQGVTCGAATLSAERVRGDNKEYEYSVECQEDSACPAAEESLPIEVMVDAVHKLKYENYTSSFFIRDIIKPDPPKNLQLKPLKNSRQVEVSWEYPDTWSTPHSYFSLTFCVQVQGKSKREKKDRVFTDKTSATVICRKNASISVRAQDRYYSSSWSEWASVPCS

No constants are given. Whether binding was seen depends on the method and setting. Binding seen in cells or lysates may run through a third protein. Some binding calls cover weakened binding; strength is not graded here.

This test concerns the target human FLAG-IL-B30 (human) (UniProt Q9NPF7). Nature of the test: coimmunoprecipitation from supernatant of cotransfected primate cells, PAGE.

Turning to “human IL-12 p40 (from UniProt P29460 23-328) (ligand)”, the binding entry is “binds”.
